Measured values taken from the supplement of paper PMC10849652.
The list shows a part of the results.

Chains of the proteins cited; added tags and fusions are not shown. Lines headed by an entry give the natural chain unless they say otherwise; changes in a name come on top.
UniProt Q9H8P0: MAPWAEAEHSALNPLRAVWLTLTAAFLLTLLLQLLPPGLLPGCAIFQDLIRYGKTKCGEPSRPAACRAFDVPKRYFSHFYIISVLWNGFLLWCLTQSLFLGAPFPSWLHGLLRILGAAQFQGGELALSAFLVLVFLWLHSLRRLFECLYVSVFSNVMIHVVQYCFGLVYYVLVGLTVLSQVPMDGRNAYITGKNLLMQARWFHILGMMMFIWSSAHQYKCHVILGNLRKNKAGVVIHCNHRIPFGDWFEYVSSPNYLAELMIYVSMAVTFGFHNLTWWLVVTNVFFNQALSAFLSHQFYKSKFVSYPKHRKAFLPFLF
UniProt Q16385, whole entry, looked up: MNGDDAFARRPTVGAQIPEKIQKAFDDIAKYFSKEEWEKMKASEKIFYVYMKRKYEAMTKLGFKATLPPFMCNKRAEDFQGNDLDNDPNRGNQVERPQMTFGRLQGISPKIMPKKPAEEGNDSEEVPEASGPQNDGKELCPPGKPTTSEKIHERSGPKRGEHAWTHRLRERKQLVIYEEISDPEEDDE
UniProt Q5M775: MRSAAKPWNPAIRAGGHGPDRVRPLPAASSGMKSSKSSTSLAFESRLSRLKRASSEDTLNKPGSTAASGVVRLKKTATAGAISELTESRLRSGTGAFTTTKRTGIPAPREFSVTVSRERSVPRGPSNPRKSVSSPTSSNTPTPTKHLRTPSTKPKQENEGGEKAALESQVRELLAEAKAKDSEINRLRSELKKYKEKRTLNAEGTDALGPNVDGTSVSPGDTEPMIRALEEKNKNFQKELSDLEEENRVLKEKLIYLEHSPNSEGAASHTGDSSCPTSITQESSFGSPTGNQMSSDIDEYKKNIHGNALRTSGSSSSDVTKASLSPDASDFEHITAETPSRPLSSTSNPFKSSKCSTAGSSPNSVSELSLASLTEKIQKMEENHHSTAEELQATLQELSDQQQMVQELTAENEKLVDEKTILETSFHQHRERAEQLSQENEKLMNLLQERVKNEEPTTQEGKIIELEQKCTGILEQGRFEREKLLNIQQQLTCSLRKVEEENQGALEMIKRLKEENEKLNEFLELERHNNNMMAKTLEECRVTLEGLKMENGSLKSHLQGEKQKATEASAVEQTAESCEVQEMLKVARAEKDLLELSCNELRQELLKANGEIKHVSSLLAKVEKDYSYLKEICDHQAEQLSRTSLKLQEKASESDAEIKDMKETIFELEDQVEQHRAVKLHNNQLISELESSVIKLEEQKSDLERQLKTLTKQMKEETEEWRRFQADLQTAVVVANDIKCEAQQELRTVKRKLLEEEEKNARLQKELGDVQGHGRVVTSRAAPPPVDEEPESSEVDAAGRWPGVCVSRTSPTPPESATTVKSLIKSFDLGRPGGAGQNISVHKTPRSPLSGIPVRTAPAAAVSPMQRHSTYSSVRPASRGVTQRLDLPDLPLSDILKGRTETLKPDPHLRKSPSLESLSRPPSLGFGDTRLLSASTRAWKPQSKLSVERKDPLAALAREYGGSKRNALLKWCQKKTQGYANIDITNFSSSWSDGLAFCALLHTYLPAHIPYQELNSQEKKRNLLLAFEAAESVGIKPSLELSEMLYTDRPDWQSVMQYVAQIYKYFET
UniProt Q6ZRS2, whole entry, looked up: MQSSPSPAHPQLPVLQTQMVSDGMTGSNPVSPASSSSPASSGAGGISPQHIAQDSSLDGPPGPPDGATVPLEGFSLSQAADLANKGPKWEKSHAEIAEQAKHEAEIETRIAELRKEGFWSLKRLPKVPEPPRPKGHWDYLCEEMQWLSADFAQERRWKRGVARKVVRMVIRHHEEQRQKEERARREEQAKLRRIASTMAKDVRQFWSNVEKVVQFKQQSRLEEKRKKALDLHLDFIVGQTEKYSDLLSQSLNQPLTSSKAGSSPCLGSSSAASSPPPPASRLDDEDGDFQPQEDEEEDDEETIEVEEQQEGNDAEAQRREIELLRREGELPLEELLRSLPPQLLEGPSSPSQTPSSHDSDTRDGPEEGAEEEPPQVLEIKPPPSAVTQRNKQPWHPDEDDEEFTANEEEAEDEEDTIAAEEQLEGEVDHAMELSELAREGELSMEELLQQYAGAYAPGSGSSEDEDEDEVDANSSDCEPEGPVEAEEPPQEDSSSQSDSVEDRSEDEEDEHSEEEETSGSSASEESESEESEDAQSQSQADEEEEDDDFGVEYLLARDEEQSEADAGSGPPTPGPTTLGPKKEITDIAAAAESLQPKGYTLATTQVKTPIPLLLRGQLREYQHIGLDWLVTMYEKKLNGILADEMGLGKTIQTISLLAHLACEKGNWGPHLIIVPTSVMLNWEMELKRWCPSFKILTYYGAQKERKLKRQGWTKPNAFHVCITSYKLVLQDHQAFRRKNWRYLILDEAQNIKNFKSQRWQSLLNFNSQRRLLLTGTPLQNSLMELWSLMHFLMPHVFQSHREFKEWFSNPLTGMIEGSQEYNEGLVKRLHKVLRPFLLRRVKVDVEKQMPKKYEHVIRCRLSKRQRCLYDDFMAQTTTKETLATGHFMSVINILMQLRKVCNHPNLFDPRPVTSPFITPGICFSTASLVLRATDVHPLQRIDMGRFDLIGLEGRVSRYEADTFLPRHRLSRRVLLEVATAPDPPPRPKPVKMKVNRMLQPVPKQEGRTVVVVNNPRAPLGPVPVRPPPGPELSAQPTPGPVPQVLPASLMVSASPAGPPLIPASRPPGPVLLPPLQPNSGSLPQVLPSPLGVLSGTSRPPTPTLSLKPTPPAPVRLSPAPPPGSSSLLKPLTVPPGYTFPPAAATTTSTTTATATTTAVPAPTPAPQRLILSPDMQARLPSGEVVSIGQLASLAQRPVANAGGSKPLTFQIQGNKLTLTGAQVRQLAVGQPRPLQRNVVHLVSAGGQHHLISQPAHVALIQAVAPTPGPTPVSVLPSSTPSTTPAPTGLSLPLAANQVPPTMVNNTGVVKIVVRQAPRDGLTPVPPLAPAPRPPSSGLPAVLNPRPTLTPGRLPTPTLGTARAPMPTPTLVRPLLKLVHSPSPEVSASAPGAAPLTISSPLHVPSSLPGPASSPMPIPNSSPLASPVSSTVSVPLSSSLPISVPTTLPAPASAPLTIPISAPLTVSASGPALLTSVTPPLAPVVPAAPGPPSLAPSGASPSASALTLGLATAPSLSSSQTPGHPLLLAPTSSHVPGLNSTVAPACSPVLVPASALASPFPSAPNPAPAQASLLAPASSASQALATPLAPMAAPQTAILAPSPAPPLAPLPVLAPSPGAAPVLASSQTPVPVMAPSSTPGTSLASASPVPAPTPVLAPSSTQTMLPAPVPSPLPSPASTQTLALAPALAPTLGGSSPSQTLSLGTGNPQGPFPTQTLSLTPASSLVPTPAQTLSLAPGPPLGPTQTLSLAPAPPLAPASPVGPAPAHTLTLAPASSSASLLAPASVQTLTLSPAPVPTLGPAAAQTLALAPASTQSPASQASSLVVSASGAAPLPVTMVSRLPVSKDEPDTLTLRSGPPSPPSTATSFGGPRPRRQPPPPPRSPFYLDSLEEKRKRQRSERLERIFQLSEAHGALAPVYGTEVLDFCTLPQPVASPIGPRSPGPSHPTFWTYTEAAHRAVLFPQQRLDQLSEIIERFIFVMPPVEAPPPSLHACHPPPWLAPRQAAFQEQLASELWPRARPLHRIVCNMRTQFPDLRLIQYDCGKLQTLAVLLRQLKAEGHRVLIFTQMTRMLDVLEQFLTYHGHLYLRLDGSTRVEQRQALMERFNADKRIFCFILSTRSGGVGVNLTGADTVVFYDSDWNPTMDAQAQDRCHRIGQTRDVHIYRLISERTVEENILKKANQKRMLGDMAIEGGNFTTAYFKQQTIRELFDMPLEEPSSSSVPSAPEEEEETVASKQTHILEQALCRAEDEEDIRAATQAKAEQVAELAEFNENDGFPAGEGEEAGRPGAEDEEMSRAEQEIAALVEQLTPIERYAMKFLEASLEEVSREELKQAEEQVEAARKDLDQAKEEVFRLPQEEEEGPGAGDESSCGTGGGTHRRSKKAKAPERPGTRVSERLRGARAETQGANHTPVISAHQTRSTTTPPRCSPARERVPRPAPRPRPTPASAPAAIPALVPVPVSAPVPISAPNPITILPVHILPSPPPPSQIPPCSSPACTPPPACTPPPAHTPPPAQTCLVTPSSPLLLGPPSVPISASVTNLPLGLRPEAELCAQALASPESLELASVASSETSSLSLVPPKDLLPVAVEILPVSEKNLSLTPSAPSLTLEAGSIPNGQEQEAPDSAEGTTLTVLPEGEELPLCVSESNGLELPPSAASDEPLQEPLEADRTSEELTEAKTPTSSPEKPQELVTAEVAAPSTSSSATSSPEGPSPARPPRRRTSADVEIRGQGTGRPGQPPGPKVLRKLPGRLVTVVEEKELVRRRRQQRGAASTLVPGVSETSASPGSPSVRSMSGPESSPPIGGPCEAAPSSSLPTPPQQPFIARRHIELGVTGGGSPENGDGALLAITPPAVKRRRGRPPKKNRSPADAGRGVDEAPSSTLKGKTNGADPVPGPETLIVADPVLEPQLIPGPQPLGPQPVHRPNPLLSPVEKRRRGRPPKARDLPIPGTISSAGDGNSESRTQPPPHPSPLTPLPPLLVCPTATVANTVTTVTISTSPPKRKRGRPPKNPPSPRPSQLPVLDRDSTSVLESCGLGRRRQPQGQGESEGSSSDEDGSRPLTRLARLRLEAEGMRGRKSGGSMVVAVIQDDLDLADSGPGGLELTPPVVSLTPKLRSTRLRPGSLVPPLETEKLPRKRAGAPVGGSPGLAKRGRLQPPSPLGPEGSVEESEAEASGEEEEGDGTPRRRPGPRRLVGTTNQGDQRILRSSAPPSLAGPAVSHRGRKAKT
UniProt Q9NRC1: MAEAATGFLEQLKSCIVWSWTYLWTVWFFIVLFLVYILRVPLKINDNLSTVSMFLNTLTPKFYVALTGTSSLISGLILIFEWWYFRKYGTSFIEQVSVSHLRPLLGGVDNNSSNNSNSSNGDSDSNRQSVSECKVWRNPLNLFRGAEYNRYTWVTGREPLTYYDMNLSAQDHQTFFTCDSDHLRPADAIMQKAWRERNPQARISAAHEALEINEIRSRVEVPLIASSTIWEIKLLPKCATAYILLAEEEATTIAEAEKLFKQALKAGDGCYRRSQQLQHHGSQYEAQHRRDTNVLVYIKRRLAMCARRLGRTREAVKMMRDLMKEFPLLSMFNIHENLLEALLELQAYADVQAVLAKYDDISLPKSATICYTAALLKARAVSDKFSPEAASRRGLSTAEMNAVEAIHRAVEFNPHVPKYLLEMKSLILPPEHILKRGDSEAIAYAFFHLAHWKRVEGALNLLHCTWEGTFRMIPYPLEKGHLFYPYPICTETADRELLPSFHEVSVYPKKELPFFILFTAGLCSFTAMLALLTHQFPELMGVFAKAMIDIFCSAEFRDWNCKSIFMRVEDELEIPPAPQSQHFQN
UniProt Q01130: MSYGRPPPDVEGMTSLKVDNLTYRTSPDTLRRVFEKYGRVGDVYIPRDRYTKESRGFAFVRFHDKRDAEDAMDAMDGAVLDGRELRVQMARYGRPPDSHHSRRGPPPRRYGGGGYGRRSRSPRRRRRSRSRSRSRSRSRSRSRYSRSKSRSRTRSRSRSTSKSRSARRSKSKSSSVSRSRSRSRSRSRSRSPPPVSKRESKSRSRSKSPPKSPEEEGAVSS
UniProt Q16842: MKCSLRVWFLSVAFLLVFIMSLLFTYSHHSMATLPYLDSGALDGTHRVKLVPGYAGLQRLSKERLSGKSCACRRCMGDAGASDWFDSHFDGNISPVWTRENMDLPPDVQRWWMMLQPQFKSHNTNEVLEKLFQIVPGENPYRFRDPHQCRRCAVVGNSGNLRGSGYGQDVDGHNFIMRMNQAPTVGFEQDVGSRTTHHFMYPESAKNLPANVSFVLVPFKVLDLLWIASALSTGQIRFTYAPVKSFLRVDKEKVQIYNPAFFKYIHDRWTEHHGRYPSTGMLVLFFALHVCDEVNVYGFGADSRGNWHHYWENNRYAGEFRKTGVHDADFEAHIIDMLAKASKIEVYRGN
UniProt P19623: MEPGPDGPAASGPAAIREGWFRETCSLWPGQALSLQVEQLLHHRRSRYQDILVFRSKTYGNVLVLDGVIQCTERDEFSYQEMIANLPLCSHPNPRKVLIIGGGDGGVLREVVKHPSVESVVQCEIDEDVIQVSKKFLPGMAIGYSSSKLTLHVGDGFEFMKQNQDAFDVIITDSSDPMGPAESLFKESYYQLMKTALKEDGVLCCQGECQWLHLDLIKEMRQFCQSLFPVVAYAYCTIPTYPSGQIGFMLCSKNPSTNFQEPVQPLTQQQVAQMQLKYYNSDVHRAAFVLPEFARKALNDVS
UniProt Q9NZD8: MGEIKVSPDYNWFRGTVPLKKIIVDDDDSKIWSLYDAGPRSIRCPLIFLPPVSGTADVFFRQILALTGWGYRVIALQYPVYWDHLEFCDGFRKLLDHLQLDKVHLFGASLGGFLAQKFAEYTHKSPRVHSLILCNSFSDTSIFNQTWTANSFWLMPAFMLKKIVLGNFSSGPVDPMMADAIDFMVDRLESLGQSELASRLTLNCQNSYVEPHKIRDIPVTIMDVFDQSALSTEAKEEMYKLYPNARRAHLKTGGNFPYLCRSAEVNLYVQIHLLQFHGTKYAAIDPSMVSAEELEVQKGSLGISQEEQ

Columns and labels:
Test in all cases: log2 fold change, soluble protein after heating vs DMSO (PISA); higher = thermal stabilisation; K562 cells, 10 uM, 30 min; active = over 0.2 and 3.5 SD of the protein, either way, in both replicates (recomputed)
[1] = compound: C1=CC=C(C=C1)[C@H](COC2=CC3=C(C=C2)NC(=O)N3)NC(=O)C4=CC=CN(C4=O)CC5=CC(=C(C=C5)F)F
How it was run: (§1)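 K562 cells (2×10^6 cells/mL) were treated with 10 μM compound for 30 min, and aliquots were heated for 3 min over 48°C-58°C. Pooled aliquots were extracted in PBS with 0.5% NP-40 at 4°C, and the supernatant after 21,000xg for 90 min was measured by TMTpro 16plex LC-MS/MS with channel sums equalised. Reported thermal stability, relative to control samples and from duplicates, is a log2 fold change.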

[2] = compound: CC1=C(SC2=C1C(=N[C@H](C3=NN=C(N32)C)CC(=O)N)C4=CC=C(C=C4)Cl)C
How it was run: as §1

[3] = compound: CC1=C2C(=CC=C1)N=C(N(C2=O)C3=CC=CC=C3C)CN4C=NC5=C(N=CN=C54)N
How it was run: as §1

[4] = compound: Cc1sc2c(c1C)C(c1ccc(Cl)cc1)=N[C@@H](CC(=O)OC(C)(C)C)c1nnc(C)n1-2
How it was run: as §1

[5] = compound: c1ccc([C@@H]2C[C@H]2NC2CCNCC2)cc1
How it was run: as §1

Measured: log2 fold change

SRD5A3 (UniProt Q9H8P0)
inactive: [1] -0.056

SSX2 (UniProt Q16385)
inactive: [1] 0.008 | [2] -0.024 | [3] 0.038 | [4] -0.021 | [5] 0.023

SSB (UniProt P05455)
inactive: [1] -0.02 | [2] 0.088 | [3] 0.014 | [4] 0.007 | [5] 0.055

SRSF5 (UniProt Q13243)
inactive: [1] 0.091 | [2] -0.278 | [3] -0.059 | [4] 0.062 | [5] 0

SPG7 (UniProt Q9UQ90)
inactive: [1] 0.026 | [2] 0.043 | [3] 0.019 | [4] -0.02 | [5] 0.01

SPIRE1 (UniProt Q08AE8)
inactive: [1] 0.079 | [2] 0.002 | [3] 0.196 | [4] -0.01 | [5] 0.075

SPATA5 (UniProt Q8NB90)
inactive: [1] 0.04 | [2] 0.002 | [3] -0.026 | [4] 0.01 | [5] 0.021

SPECC1 (UniProt Q5M775)
inactive: [1] -0.017 | [2] -0.087 | [3] 0.105 | [4] -0.012 | [5] 0.037

SRGN (UniProt P10124)
inactive: [1] 0.045 | [2] 0.011 | [3] 0.013 | [4] 0.086 | [5] 0.095

SRP68 (UniProt Q9UHB9)
inactive: [1] -0.041 | [2] 0.022 | [3] 0.039 | [4] 0.092 | [5] -0.029

SRCAP (UniProt Q6ZRS2)
inactive: [1] 0.074 | [2] 0.013 | [3] 0.101 | [4] -0.005 | [5] -0.136

STAG2 (UniProt Q8N3U4)
inactive: [1] 0.012 | [2] 0.007 | [3] 0.03 | [4] -0.03 | [5] 0.039

ST6GAL1 (UniProt P15907)
inactive: [1] 0.017 | [2] 0.012 | [3] 0.033 | [4] -0.018 | [5] -0.006

SRP9 (UniProt P49458)
inactive: [1] 0.036 | [2] -0.268 | [3] -0.242 | [4] 0.154 | [5] 0.053

SRXN1 (UniProt Q9BYN0)
inactive: [1] -0.02 | [2] 0.086 | [3] 0.117 | [4] -0.05 | [5] 0.086

ST7 (UniProt Q9NRC1)
inactive: [1] 0.021 | [2] 0.019 | [3] 0.082 | [4] 0.051 | [5] -0.012

Random excerpt: two entries already listed
ST7 (UniProt Q9NRC1)
inactive: [1] 0.021 | [2] 0.019 | [3] 0.082 | [4] 0.051 | [5] -0.012

SRP9 (UniProt P49458)
inactive: [1] 0.036 | [2] -0.268 | [3] -0.242 | [4] 0.154 | [5] 0.053

Next part

SSR1 (UniProt P43307)
inactive: [1] 0.043 | [2] 0.009 | [3] 0.046 | [4] -0.003 | [5] 0.001

SRSF2 (UniProt Q01130)
inactive: [1] 0.008 | [2] -0.047 | [3] -0.052 | [4] 0.061 | [5] 0.143

ST3GAL2 (UniProt Q16842)
inactive: [1] 0.083 | [2] 0.006 | [3] 0.011 | [4] 0.005 | [5] 0.007

SRM (UniProt P19623)
inactive: [1] 0.002 | [2] 0.065 | [3] 0.031 | [4] -0.013 | [5] -0.053

SSR4 (UniProt P51571)
inactive: [1] 0.045 | [2] 0.046 | [3] 0.002 | [4] -0.048 | [5] -0.018

SRP14 (UniProt P37108)
inactive: [1] 0.13 | [2] -0.272 | [3] -0.258 | [4] 0.185 | [5] 0

SQSTM1 (UniProt Q13501)
inactive: [1] 0 | [2] 0.097 | [3] -0.128 | [4] 0.096 | [5] 0.012

SRPK1 (UniProt Q96SB4)
inactive: [1] 0.045 | [2] -0.293 | [3] -0.4 | [4] 0.191 | [5] 0.008

SPG21 (UniProt Q9NZD8)
inactive: [1] -0.128 | [2] -0.035 | [3] 0.031 | [4] -0.062 | [5] -0.02

SQLE (UniProt Q14534)
inactive: [1] -0.012 | [2] 0.144 | [3] 0.032 | [4] -0.005 | [5] -0.052
